Assay results from publication PMC7092623.

B1: Phosphodiesterase subunit 6C (protein, UniProt A0A8M1PI31 1-852)
chain: MADKDSVEKYLENNPQFAKEYFDKKVRCEVIAAAFEEKLDIKDPASFKDVTQVQEAAILFDMIQDMHSQPVMEKAMHKVLQRICLLVNADRCSYFIARARNGIPELATCLFDVTPTSKYEANLVNPQSEIVFPTDTGIVGQIVTTKKPANVPDVKQNPRFSDFVDKQTGYTTKNMMAAPLMQGKDPLGVVMAINKVGANEFSKEDEDVFSKYIIFATVIALQHYTNYMYNVESRRSQVLLWSASKVFEELTDIERQFHKALYTVRTYLQCERYSCGLLDMTKEKEFYDEWPIKLGDVEPYKGPKTPDGREIIFYKIIDYLLEGKEEIKVIPNPPADHWALVSGLPTYVAENGFICNMMNVAADEYFTFQKEAVDETGFVIKNVLSLPIVNKKEEIVGVATFFNRKDGKPFEEQDEQITEALTQFLGWSVLNCDTYDKLNRMEWRKEIAEEMVMYQTKATPAEVQQILNTKEKFDQNPEDCDQKEMYKLLRANIPEAKDVDLLEFSFSDFPLTETDLIKCGIRCFFELGVVEKFKVPAEVLTRWMYTVRKGYRDITYHNWRHGFNVGQTMFCLLQTGKLRRYYTDLDAFAMVAAAFCHDIDHRGTNNLYQTKSASPLAKLHGSSILERHHLQYSKNLMAEENVNIFQSLQKRQFETVQHLHDVCIIATDLALYFKKRTMFQKIVDATEPMTKEEEMVAHVANNPIRKEIIMAMMMTGCDLSAITKPWEVQSKVALMVAAEFWEQGDLERTVLDQQPIPMMDRNKSDELPKMQCGFIDFVCSFVYKEFSRFHKEITPMFDGLNNNRVHWKELADIYQAKIDAIANEKKRLEEEQAKKGGEEGGEGGKSKTCTIF
B2: Mitochondrial 2-oxoglutarate/malate carrier protein (protein, UniProt A0A8M1MZV6 1-308)
chain: MAAAADTAKPKTSPKSIKFLFGGLAGMGATVFVQPLDLVKNRMQLSGQGSKAREYKTSFHAVGSILRNEGVRGIYTGLSAGLLRQATYTTTRLGIYTILFERMSKADGTPPNFFMKALIGMTAGATGAFVGTPAEVALIRMTADGRLPPDQRRGYTNVFNALVRITREEGVTTLWRGCIPTMARAVVVNAAQLASYSQSKQALLDSGYFRDDILCHFCASMISGLVTTAASMPVDIVKTRIQNMRMIDGKPEYNNGLDVLVKVIRNEGFFSLWKGFTPYYARLGPHTVLTFIFLEQMNKFYKIYFLDS
B3: Opsin-1, short-wave-sensitive 2 (protein, UniProt Q9W6A8 1-354)
chain: MKQQQQTPELFEDFHMPITLDVSNISAYSPFLVPQDHLGHSGVFMGMSAFMLFLFIAGTAINVLTIVCTIQYKKLRSHLNYILVNLAISNLWVSVFGSSVAFYAFYKKYFVFGPIGCKIEGFTSTIGGMVSLWSLAVVALERWLVICKPLGNFTFKTPHAIAGCILPWCMALAAGLPPLLGWSRYIPEGLQCSCGPDWYTTNNKFNNESYVMFLFCFCFAVPFSTIVFCYGQLLITLKLAAKAQADSASTQKAEREVTKMVVVMVFGFLICWGPYAIFAIWVVSNRGAPFDLRLATIPSCLCKASTVYNPVIYVLMNKQFRSCMMKMVFNKNIEEDEASSSSQVTQVSSVAPEK
B4: Protein SREK1IP1 (protein, UniProt Q3B7G7 1-158)
chain: MAAPGPNKDNIRAGCKRCGYPGHLTFECRNFLRVDPRKDIVLDVSSTSTEESDEEEQEALSKEKIFGSHSKGSQEDSRKEKHKKKSKERSRGKAKKRSYSSSDEEEDEMSKKKKKRKSNKKKGKKEKREKERKHKKKQKKKDTESSSSDSSSESSDTD
B5: Retinal G-protein coupled receptor a (protein, UniProt Q567Y2 1-295)
chain: MVTSYPLPEGFSEFDVFSLGSCLLVEGLLGFFLNAVTVIAFLKIRELRTPSNFLVFSLAMADMGISTNATVAAFSSFLRYWPYGSDGCQTHGFQGFMTALASIHFIAAIAWDRYHQYCTRTKLQWSSAITLVLFTWLFTAFWAAMPLFGWGEYDYEPLRTCCTLDYSKGDRNYVSYLIPMSIFNMGIQVFVVLSSYQSIDKKFKKTGQAKFNCGTPLKTMLFCWGPYGILAFYAAVENATLVSPKLRMIAPILAKTSPTFNVFVYALGNENYRGGIWQLLTGQKIESPAIENKSK
B6: Thioredoxin (protein, UniProt Q7ZUI4 1-108)
chain: MIVVIEDQDGFDKALAGAGDKLVVVDFTATWCGPCQSIAPFYKGLSENPDYSNVVFLKVDVDDAQDVAQSCEIKCMPTFHFYKNGKKLDDFSGSNQTKLEEMVKQHKN
B7: Sideroflexin (protein, UniProt A1L257 1-322)
chain: MSGDLPLNINIKEPRWDQGTFMGRAQHFFMVTDPRNVLLSSEVLEDARVTVENYRLGVVKPGLTEDALWRAKYIYDSAFHPDTGEKMLLVGRMSAQVPMNMTITGCMLTFYRTTPAVVFWQWVNQSFNAVVNYTNRSGDAPITVNQLGAAYVSATTGAVVTALSLKALTKHLPAIISRFVPFAAVAAANCINIPFMRQRELKCGIPVTDAEGKRLGESTNAAQQAIVQVVVSRIGMAVPAMAIPPVIMNALEKKAFLKRFPVLNAPLQVGLVGFCLVFATPLCCALFPQKSSMKVSSLEPELQESIRQSNPHISTVYFNKGL
B8: BetaA1c-crystallin 7 (protein, UniProt B5M4A7 1-206)
chain: MNRVTAIQTNPSASGIDMAPCFKVTVFEQEHFQGKCQELTSECRNIQERGFDNIRSIRVESGAWVGYEHHDFQGQQFVLEKGEYPQWDAYSGNLGYHVERMMSLRPICSAVHQDSRMTIFEKENFMGRSVELCDDYPSLQAMGWCDKQVGSMHVQCGAFVCYEYPGYRGQQYIMECDKHSGDYQHWKDWGSHCQTPQIQSIRRIQH

Columns and labels:
Test in all cases: affinity purification with mass spectrometry; eGFP-Rab28 (WT, Q72L or T26N) held on GFP-Trap beads from 5 dpf larval whole-eye lysates (100 eyes per replicate); IP lysis buffer 50 mM Tris HCl pH 7.5, 150 mM NaCl, 10 mM MgCl2, 1% NP-40, 1 mM DTT; 4°C, 2 h or overnight; on-bead trypsin digest, Q-Exactive; LFQ, t-test against eGFP only control
[1] = molecular target: eGFP-Rab28 (wild type) (zebrafish) (UniProt Q7ZVW0)
[2] = molecular target: eGFP-Rab28 Q72L (GTP-preferring) (zebrafish) (UniProt Q7ZVW0)
[3] = molecular target: eGFP-Rab28 T26N (GDP-preferring) (zebrafish) (UniProt Q7ZVW0)

| Binder | binding [1] | binding [2] | binding [3] |
| --- | --- | --- | --- |
| B1 | binds | binds | binds |
| B2 | binds | binds | binds |
| B3 |  | binds | binds |
| B4 |  | binds | binds |
| B5 |  | binds | binds |
| B6 |  | binds | binds |
| B7 |  | binds | binds |
| VHLKRGVPDRLLYRSTMALTVGGVLYCLVALYLAAQPKKK (peptide, UniProt Q7SXI1 76-115) [Cox7a2l protein] |  |  | binds |
| B8 |  |  | binds |

No constants are given. Whether binding was seen depends on the method and setting. In cells and extracts the contact can be indirect. Here binding means that the protein was enriched with, or labelled near, the bait; the list need not be complete.
